Results are given in words; binding and its absence hold for the method and conditions named. Some entries that bind do so weakly or less than the wild type. Each block holds one binder with its values, some of them ahead of it.
Assays:
[1] = target: T1, IKKα bait: 937 bp SnaBI/XhoI fragment of the murine IKKα clone encoding the protein's leucine zipper, helix-loop-helix and carboxyl terminus, in the pGTB9c bait vector (murine) (UniProt P04386+Q60680); assay: yeast two-hybrid, relative interaction strength by colony growth rate
[2] = target: T1, IKKα bait: 937 bp SnaBI/XhoI fragment of the murine IKKα clone encoding the protein's leucine zipper, helix-loop-helix and carboxyl terminus, in the pGTB9c bait vector (murine); assay: yeast two-hybrid, colony growth
[3] = target: T1, IKKα bait: 937 bp SnaBI/XhoI fragment of the murine IKKα clone encoding the protein's leucine zipper, helix-loop-helix and carboxyl terminus, in the pGTB9c bait vector (murine); assay: yeast two-hybrid

The chains behind the UniProt entries cited, without tags or fusion partners. Where a name states a change or a piece, a line headed by the entry shows the natural chain unless it says otherwise.
UniProt P04386: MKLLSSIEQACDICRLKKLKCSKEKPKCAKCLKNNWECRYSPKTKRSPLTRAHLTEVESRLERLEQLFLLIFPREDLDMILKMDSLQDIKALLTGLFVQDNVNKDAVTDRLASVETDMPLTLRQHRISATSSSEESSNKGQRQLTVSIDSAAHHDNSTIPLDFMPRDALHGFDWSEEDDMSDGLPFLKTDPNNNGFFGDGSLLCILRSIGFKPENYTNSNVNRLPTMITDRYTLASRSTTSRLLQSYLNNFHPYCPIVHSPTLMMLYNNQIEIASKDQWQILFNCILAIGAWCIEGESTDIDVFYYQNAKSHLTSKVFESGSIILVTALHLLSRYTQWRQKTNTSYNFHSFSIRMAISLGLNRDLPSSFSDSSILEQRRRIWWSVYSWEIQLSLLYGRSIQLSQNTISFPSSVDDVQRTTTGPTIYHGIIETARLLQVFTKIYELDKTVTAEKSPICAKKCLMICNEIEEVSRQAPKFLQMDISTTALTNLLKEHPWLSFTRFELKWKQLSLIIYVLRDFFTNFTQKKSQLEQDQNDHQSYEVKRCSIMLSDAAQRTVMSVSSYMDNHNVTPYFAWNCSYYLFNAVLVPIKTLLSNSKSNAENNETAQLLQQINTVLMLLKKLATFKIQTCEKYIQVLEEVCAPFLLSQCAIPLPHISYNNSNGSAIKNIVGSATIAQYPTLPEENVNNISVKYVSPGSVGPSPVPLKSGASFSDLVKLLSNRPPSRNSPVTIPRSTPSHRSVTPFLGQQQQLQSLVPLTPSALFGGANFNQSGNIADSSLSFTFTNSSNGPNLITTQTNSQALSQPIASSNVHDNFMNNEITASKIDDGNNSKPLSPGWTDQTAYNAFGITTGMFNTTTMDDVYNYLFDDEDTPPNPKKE
UniProt Q60680: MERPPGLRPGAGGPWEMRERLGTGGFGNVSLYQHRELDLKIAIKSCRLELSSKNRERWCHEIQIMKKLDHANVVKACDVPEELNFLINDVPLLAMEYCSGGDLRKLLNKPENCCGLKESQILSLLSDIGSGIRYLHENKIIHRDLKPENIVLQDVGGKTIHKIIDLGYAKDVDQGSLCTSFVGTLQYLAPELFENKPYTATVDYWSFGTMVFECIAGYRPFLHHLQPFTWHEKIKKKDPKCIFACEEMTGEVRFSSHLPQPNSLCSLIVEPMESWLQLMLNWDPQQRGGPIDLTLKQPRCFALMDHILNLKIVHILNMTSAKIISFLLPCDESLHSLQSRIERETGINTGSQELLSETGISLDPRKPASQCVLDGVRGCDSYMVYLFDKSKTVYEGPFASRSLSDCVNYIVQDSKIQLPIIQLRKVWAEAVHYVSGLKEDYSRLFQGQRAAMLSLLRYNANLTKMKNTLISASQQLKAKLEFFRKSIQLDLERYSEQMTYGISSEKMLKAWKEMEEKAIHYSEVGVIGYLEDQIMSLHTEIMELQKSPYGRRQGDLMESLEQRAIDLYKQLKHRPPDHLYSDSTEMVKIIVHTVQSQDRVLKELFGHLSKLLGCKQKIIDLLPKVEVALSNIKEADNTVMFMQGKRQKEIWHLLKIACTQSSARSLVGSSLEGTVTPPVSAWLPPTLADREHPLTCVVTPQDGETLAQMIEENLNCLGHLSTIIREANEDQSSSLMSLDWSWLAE

binding [1]: binds
B1: Y2h clone 11, RanBP5 (protein, human, UniProt O00410 2-1097, looked up)
chain: AAAAAEQQQFYLLLGNLLSPDNVVRKQAEETYENIPGQSKITFLLQAIRNTTAAEEARQMAAVLLRRLLSSAFDEVYPALPSDVQTAIKSELLMIIQMETQSSMRKKVCDIAAELARNLIDEDGNNQWPEGLKFLFDSVSSQNVGLREAALHIFWNFPGIFGNQQQHYLDVIKRMLVQCMQDQEHPSIRTLSARATAAFILANEHNVALFKHFADLLPGFLQAVNDSCYQNDDSVLKSLVEIADTVPKYLRPHLEATLQLSLKLCGDTSLNNMQRQLALEVIVTLSETAAAMLRKHTNIVAQTIPQMLAMMVDLEEDEDWANADELEDDDFDSNAVAGESALDRMACGLGGKLVLPMIKEHIMQMLQNPDWKYRHAGLMALSAIGEGCHQQMEGILNEIVNFVLLFLQDPHPRVRYAACNAVGQMATDFAPGFQKKFHEKVIAALLQTMEDQGNQRVQAHAAAALINFTEDCPKSLLIPYLDNLVKHLHSIMVLKLQELIQKGTKLVLEQVVTSIASVADTAEEKFVPYYDLFMPSLKHIVENAVQKELRLLRGKTIECISLIGLAVGKEKFMQDASDVMQLLLKTQTDFNDMEDDDPQISYMISAWARMCKILGKEFQQYLPVVMGPLMKTASIKPEVALLDTQDMENMSDDDGWEFVNLGDQQSFGIKTAGLEEKSTACQMLVCYAKELKEGFVEYTEQVVKLMVPLLKFYFHDGVRVAAAESMPLLLECARVRGPEYLTQMWHFMCDALIKAIGTEPDSDVLSEIMHSFAKCIEVMGDGCLNNEHFEELGGILKAKLEEHFKNQELRQVKRQDEDYDEQVEESLQDEDDNDVYILTKVSDILHSIFSSYKEKVLPWFEQLLPLIVNLICPHRPWPDRQWGLCIFDDVIEHCSPASFKYAEYFLRPMLQYVCDNSPEVRQAAAYGLGVMAQYGGDNYRPFCTEALPLLVRVIQSADSKTKENVNATENCISAVGKIMKFKPDCVNVEEVLPHWLSWLPLHEDKEEAVQTFNYLCDLIESNHPIVLGPNNTNLPKIFSIIAEGEMHEAIKHEDPCAKRLANVVRQVQTSGGLWTECIAQLSPEQQAAIQELLNSA

binding [1]: binds
binding [2]: binds
B2: Y2h clone 21, TRIP9/HuIκBβ2 (protein, human, UniProt Q15653-2 1-338, looked up)
chain: MAGVACLGKAADADEWCDSGLGSLGPDAAAPGGPGLGAELGPGLSWAPLVFGYVTEDGDTALHLAVIHQHEPFLDFLLGFSAGTEYMDLQNDLGQTALHLAAILGETSTVEKLYAAGAGLCVAERRGHTALHLACRVGAHACARALLQPRPRRPREAPDTYLAQGPDRTPDTNHTPVALYPDSDLEKEEEESEEDWKLQLEAENYEGHTPLHVAVIHKDVEMVRLLRDAGADLDKPEPTCGRSPLHLAVEAQAADVLELLLRAGANPAARMYGGRTPLGSAMLRPNPILARLLRAHGAPEPEGEDEKSGPCSSSSDSDSGDEGVSQEERQGSPAGGSG

binding [1]: binds
binding [3]: binds
binding [2]: binds
B3: Y2H14, IKK binding protein (protein)
chain: CGLPLKEGALRPSYDRKSDRPVYEGPSMFGGERRTYPEERMPLPAPSLSHQPPPAPRVEKKPESKNVDDILKPPGRESRPERIVVIMRGLPGSGKTHVAKLIRDKEVEFGGPAPRVLSLDDYFITEVEKEEKDPDSGKKVKKKVREYEYEAEMEETYRTSMFKTFKKTLDDGFFPFIILDAINDRVRHFDQFWSAAKTKGFEVYLAEMSADNQTCGKRNIHGRKLKEINKMADHWETAPRHMMRLDIRSLLQDAAIEEVEMEDFDANIEEQKEEKKDAEEEESELGYIPKSKWEMDTSEAKLDKLDGLRTGTKRKRDWEAIASRMEDYLQLPDDYDTRASEPGKKRVRWADLEEKKDADRKRAIGFVVGQTDWEKITDESGHLAEKALNRTKYI
